No constants are given. Whether binding was seen depends on the method and setting. Binding seen in cells or lysates may run through a third protein. Here binding means that the protein was enriched with, or labelled near, the bait; the list need not be complete. Tags and fused reporters may be left off the sequences shown. Blank lines part the entries; values can stand above or below the binder they belong to.
Target: T1, 6HIS-HA-JHD2 (S. cerevisiae) (UniProt P47156)
T1 sequence: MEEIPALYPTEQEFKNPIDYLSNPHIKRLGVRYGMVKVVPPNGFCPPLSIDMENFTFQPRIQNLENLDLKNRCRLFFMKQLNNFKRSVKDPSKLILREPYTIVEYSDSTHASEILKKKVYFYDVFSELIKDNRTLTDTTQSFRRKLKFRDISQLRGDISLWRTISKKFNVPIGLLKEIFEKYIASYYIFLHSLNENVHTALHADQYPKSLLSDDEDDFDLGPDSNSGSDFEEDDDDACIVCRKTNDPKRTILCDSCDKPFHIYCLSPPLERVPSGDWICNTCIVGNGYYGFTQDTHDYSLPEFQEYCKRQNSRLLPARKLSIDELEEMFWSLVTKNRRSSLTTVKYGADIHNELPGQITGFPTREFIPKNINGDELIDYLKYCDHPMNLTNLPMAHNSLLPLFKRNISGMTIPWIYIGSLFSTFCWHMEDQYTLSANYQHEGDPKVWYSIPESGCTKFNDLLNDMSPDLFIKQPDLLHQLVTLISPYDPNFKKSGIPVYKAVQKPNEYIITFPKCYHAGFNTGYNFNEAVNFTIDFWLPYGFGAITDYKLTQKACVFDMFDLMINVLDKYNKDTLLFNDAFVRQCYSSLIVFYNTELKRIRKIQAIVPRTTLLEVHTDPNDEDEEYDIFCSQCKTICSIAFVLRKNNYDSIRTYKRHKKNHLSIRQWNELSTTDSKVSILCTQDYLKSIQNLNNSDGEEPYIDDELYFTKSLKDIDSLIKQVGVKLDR
Assay: affinity purification with mass spectrometry; whole cell extracts of a wild-type strain with 6HIS-HA-JHD2 induced from the GAL1 promoter for 6 hours; Ni-NTA agarose and anti-HA agarose beads at 4°C for 24 hours; proteins found with the empty vector strain excluded

binding: binds
B1: DAM1 (protein, UniProt P53267 1-343)
chain: MSEDKAKLGTTRSATEYRLSIGSAPTSRRSSMGESSSLMKFADQEGLTSSVGEYNENTIQQLLLPKIRELSDSIITLDSNFTRLNFIHESLADLNESLGSLLYGIMSNSWCVEFSQAPHDIQDDLIAIKQLKSLEDEKNNLVMELSNMERGIKRKKDEQGENDLAKASQNKQFNQPLFPSSQVRKYRSYDNRDKRKPSKIGNNLQVENEEDYEDDTSSEASFVLNPTNIGMSKSSQGHVTKTTRLNNNTNSKLRRKSILHTIRNSIASGADLPIENDNVVNLGDLHPNNRISLGSGAARVVNGPVTKNRNSMFSGRAERKPTESRHSVAKKTEKKINTRPPFR

binding: binds
B2: SLK19 (protein, UniProt Q08581 1-821)
chain: MNEVPTTPVRLILGQAQQREQNSENCSQERNPRTFNSEPDSSFNSPGSSQFVIHPHEPLEKEKDEKQDLDRSIDYGRSSALNNKNNANPLENIDINKMFDDKKSDSGTNDDKGGASTSDKHVLALNYSPIRVEMNSSEKRSDKNVDVDENDKEGSHINKKLKLQLESVPDLKQSSTKDIINDKEEIMSSPMAIDMIETNISPNKFIINDGVERNDSFNINTDTLKLENDINEKQQEEDFIKSNSNNVVNIDNAYKEKEDEENDITNSHINRLTPLYETSARESNSNEEGRNDYDDDNQLDIRHDNFQIVAKRNEELTDQIYHLNQMLNSLISKNESLSFQYEKLNKNHQLLIDLTNEKLDKLNTERESDIAKVEKFKKRIKELNTEIKVLNSNQKILQEKFDASITEVNHIKGEHENTVNTLQQNEKILNDKNVELENMKAELKGNNDKLSEYETTLNDLNSRIVQLNDKIESTDIVLKSKENELDNLKLSLKETLSISKDFNDSDLIGQINELISTKNNLQQKMDDLNNLNDDNLKVVQDKLIKNEETLKLKEAEIDSLNSEMDELKKQITSKDDEFKMWQSKYETVEDEAKIRNAEVTELNGDIEDLKESKLHLEETITELENKVHKLENECELEKQKFEKTSLELESLQLKNSNIQAEHIKELENLHENLISLQNELKISSDRITTLTKENEVLMEQNNNNNNSVTLSNDQKDRDDEKIKSLGKQVQDWKEKYEAKEKDTNKRLKLLAEDLYIQYSSKHEQKVKLLKKGYENKYQNKFDQLNLENKTLSEEIEQLNKQLSSEREEKQELLKLLENEKK

binding: binds
B3: ECM31 (protein, UniProt P38122 1-312)
chain: MNIMKRQLCTSSKRFFSTAKNVVKYNTIQDIRNKYFTGTPLSMCTAYDFITATWVNKANCDLLLVGDSLAMTSLGYDSTITLSLNEFKYHVASVCRAEGSSMVVVDMPFGTFESGISDGLKNAIDIMKLDSKVTSVKVEVGSYTKDKYAMKFIEELCSRGIPVMAHIGLTPQKVHSLGGYKVQGSKSLLQMQELYETAMQLQKIGCWSILIECVPHKMAQFITSKLSVPTIGIGAGNGTSGQVLVISDLLGMQGDSVPKFVKQAVNMTDIATQGLKEYIASVEDRTFPERGTHTFKVKEDLWNEFLSSINEK

binding: binds
B4: SPC34 (protein, UniProt P36131 1-295)
chain: MGESLDRCIDDINRAVDSMSTLYFKPPGIFHNAILQGASNKASIRKDITRLIKDCNHDEAYLLFKVNPEKQSVSRRDGKEGVFDYVIKRDTDMKRNRRLGRPGEKPIIHVPKEVYLNKDRLDLNNKRRRTATTSGGGLNGFIFDTDLIGSSVISNSSSGTFKALSAVFKDDPQIQRLLYALENGSVLMEEESNNQRRKTIFVEDFPTDLILKVMAEVTDLWPLTEFKQDYDQLYHNYEQLSSKLRFIKKEVLLQDDRLKTMSQYHPSSSHDVAKIIRKEKDEIRRLEMEIANLQE

binding: binds
B5: BUD23 (protein, UniProt P25627 1-275)
chain: MSRPEELAPPEIFYNDSEAHKYTGSTRVQHIQAKMTLRALELLNLQPCSFILDIGCGSGLSGEILTQEGDHVWCGLDISPSMLATGLSRELEGDLMLQDMGTGIPFRAGSFDAAISISAIQWLCNADTSYNDPKQRLMRFFNTLYAALKKGGKFVAQFYPKNDDQVDDILQSAKVAGFSGGLVVDDPESKKNKKYYLVLSSGAPPQGEEQVNLDGVTMDEENVNLKKQLRQRLKGGKDKESAKSFILRKKELMKRRGRKVAKDSKFTGRKRRHRF

binding: binds
B6: COQ5 (protein, UniProt P49017 20-307)
chain: SRCFTQAHRACKEEEVNSPLSSAAEQPEQKYTHFGSKTVLKSTKQKLVGDVFSSVANRYDLMNDVMSLGIHRLWKDHFINKLDAGKRPNSTTPLNFIDVAGGSGDIAFGLLDHAESKFGDTESTMDIVDINPDMLKEGEKRAMEQGKYFKDPRVRFLVSNGEKLEEIDSDSKDIYTVSFGIRNFTDIQKGLNTAYRVLKPGGIFYCLEFSKIENPLMDFAYQQWAKVLPVMGSMIANDYDSYQYLVESIERFPDQETFKSMIEKAGFKSAGYESLTFGICAIHWGIKV

binding: binds
B7: STU2 (protein, UniProt P46675 1-888)
chain: MSGEEEVDYTTLPLEERLTYKLWKARLEAYKELNQLFRNSVGDISRDDNIQIYWRDPTLFAQYITDSNVVAQEQAIVALNSLIDAFASSSLKNAHNITLISTWTPLLVEKGLTSSRATTKTQSMSCILSLCGLDTSITQSVELVIPFFEKKLPKLIAAAANCVYELMAAFGLTNVNVQTFLPELLKHVPQLAGHGDRNVRSQTMNLIVEIYKVTGNNSDLLEEILFKKLKPIQVKDLHKLFAKVGDEPSSSKMLFEWEKRELEKKRSQEEEARKRKSILSNDEGEYQIDKDGDTLMGMETDMPPSKQQSGVQIDTFSMLPEETILDKLPKDFQERITSSKWKDRVEALEEFWDSVLSQTKKLKSTSQNYSNLLGIYGHIIQKDANIQAVALAAQSVELICDKLKTPGFSKDYVSLVFTPLLDRTKEKKPSVIEAIRKALLTICKYYDPLASSGRNEDMLKDILEHMKHKTPQIRMECTQLFNASMKEEKDGYSTLQRYLKDEVVPIVIQIVNDTQPAIRTIGFESFAILIKIFGMNTFVKTLEHLDNLKRKKIEETVKTLPNFSIASGSTHSTIETNKQTGPMENKFLLKKSSVLPSKRVASSPLRNDNKSKVNPIGSVASASKPSMVAANNKSRVLLTSKSLATPKNVVANSTDKNEKLIEEYKYRLQKLQNDEMIWTKERQSLLEKMNNTENYKIEMIKENEMLREQLKEAQSKLNEKNIQLRSKEIDVNKLSDRVLSLENELRNMEIELDRNKKRNDTNLQSMGTISSYSIPSSTVSSNYGVKSLSSALPFKEEEDVRRKEDVNYERRSSESIGDLPHRVNSLNIRPYRKNGTGVSSVSDDLDIDFNDSFASEESYKRAAAVTSTLKARIEKMKAKSRREGTTRT

binding: binds
B8: CRG1 (protein, UniProt P38892 1-291)
chain: MPKTSYLNKNFESAHYNNVRPSYPLSLVNEIMKFHKGTRKSLVDIGCGTGKATFVVEPYFKEVIGIDPSSAMLSIAEKETNERRLDKKIRFINAPGEDLSSIRPESVDMVISAEAIHWCNLERLFQQVSSILRSDGTFAFWFYIQPEFVDFPEALNVYYKYGWSKDYMGKYLNDNQREILLNYGGEKLRSLLSDRFGDIEVTIYSPSDPNASTVTAENSQFLWRAAITLNQFKEFVKSWSIYTSWARDNPSKPDIADIFINELKEICHCEDLNVPLKIEWSTFYYLCRKRE

binding: binds
B9: SPC19 (protein, UniProt Q03954 1-165)
chain: MTDALEQSVLALEGTVSVLKDSVESLKCANEPSTNLASTMLQTKRVFRLVPEYDVERSKLDLIEEVEPLVRTLGDKLRKSMGRMQRELDTLQQTYELNDLRLKKNISMDDDDALNSPDMGQEYEGRDADDVVMMASSTNEELEELKKLKEKKKQLENKLEILKQK

Reference: PMC12204631
